US20240182848A1, “SULFAMETHOXAZOLE-DEGRADING PSEUDOMONAS SILESIENSIS STRAIN, AND APPLICATION THEREOF” (CHINESE RESEARCH ACADEMY OF ENVIRONMENTAL SCIENCES, priority 2021, published 2024)

Tested on: F6a strain
Experiment: Fate of SMX intermediate products during degradation by F6a strain (UPLC-QTOF-MS / HPLC/MS/MS)
Set-up: species or system Pseudomonas silesiensis
Settings: 10 mg/L SMX, R2A medium, absorption peaks followed up to 336 h

## Nc1ccc(O)cc1 [C6, p-aminophenol]
  fate of intermediate product (mineralization) during SMX degradation: cannot be further mineralized into gas
